Where a chain is given by its changes, count along the chain named. Numbers in names are those of the source. At least one read-out could not be matched to a standard name with certainty.
B1: LuxSit-i: LuxSit variant R60S/A96L/M110V, SEQ ID NO:2, named for high brightness (protein)
chain: MSEEQIRQFLRRFYEALDSGDADTAASLFHPGVTIHLWDGVTFTSREEFREWFERLFSTSKDAQREIKSLEVRGDTVEVHVQLHATHNGQKHTVDLTHHWHFRGNRVTEVRVHINPTG
modifications: VARIANT 1 optionally absent; VARIANT 118 optionally absent
B2: LuxSit-f: LuxSit variant A96M/M110V, SEQ ID NO:3, strong initial flash emission (protein)
chain: B1 chain with S60R, L96M
modifications: VARIANT 1 optionally absent; VARIANT 118 optionally absent

Experiment: Michaelis-Menten kinetics measurements of purified luciferases
Format: biochemical
Protocol: For Michaelis-Menten kinetics measurements, 25 μL of serial diluted DTZ substrate in Tris pH 8.0 buffer was added into the wells of a white 96-well half-area microplate containing 25 μL of purified luciferases (final enzyme concentration: 100 nM; substrate concentration: 0.78 to 50 μM). Measurements were taken every 1 min (0.1 s integration and 10 s shaking between each interval) for a total of 20 min. Initial velocities were estimated as the average of the light intensities from the first three data points to fit the Michaelis-Menten equation. All relative arbitrary unit (RLU) per second values were converted to photon/s by the luminol-H2O2—HRP calibration method^45. Following the equation: Imax=LQY×kcat×[E], Imax is the maximal photon flux (photon s^−1), [E] is the total enzyme concentration, and V ax is the maximum photon flux per molecule (photon s^−1 molecule^−1) from the fitting of the Michaelis-Menten equation. To determine the luminescent quantum yields, 25 μL of 5 μM individual substrate in PBS was injected into 25 μL PBS containing 100 nM corresponding luciferase. DTZ was used for all LuxSit variants while CTZ was used as the substrate of native RLuc. The luminescence signals were monitored until the reactions were completed (0.1 s integration and measurements were taken every 5 s for a total of 40 min). […] To record emission spectra, 25 μL of 50 μM DTZ in PBS were injected into 25 μL of 200 nM pure luciferases and the emission spectra were collected with 0.1 s integration and 2 nm increments from 300 to 700 num. In vitro luminescence activity measurements of LuxSit-i expressing HEK293T or HeLa cells were done similarly as 15,000 intact cells or lysates were used in the assay instead of purified luciferases. To evaluate the substrate specificity, 25 μL of 50 μM substrate analogs in PBS were added to 25 μL of 200 nM indicated luciferases, and the signals were recorded over 20 min. Data were shown as the total luminescence signal over the first 10 min. We normalized the data by setting the highest emission substrate at 100%.

[1] = simplest Michaelis-Menten model

| Molecule | Kcat/KM (on DTZ) | Kcat/KM [1] [M⁻¹ s⁻¹] |
| --- | --- | --- |
| B1 | 10^6 M^−1s^−1 | 1e+06 |
| B2 |  | 200000 |

— patent US20250075190A1, “DE NOVO DESIGNED LUCIFERASE” (UNIVERSITY OF WASHINGTON, priority 2022, published 2025)
